Measurements as given in PMC12811313.

Amino acid sequences for entries named in this document (tags omitted). A change or cut given only in a name is not applied to a line headed by its entry.
UniProt O00161: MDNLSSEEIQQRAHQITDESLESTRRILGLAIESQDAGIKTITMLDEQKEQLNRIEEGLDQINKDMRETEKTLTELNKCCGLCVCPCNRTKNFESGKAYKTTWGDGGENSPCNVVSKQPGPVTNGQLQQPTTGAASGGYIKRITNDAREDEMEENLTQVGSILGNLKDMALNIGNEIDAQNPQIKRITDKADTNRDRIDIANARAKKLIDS
UniProt P19474: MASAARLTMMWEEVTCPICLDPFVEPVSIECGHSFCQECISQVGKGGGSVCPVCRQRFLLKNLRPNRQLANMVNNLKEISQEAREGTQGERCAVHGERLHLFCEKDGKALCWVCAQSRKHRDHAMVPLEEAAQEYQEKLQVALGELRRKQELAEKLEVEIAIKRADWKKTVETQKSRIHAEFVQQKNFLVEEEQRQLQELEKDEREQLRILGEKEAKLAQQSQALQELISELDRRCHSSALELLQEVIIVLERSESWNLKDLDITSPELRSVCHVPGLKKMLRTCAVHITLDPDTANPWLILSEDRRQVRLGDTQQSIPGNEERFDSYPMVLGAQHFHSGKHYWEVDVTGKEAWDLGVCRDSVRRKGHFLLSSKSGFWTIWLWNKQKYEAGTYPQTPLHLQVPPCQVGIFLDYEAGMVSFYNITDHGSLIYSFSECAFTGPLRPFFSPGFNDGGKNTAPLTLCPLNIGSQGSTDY

Columns and labels:
[1] = molecular target: SNAP23 (in HEK293T cells) (UniProt O00161); assay: co-IP; lysates of HEK293T cells expressing Trim21 deletion mutants
TFAM (in HEK293T cells) = molecular target: T1, TFAM (in HEK293T cells) (UniProt Q00059); assay: as above
T1 sequence: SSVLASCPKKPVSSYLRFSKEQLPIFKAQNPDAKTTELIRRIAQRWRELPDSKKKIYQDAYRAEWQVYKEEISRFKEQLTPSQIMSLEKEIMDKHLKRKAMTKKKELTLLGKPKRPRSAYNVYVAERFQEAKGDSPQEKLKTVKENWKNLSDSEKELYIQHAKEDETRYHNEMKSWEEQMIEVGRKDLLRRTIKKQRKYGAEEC

binding [1]: no binding
binding (TFAM (in HEK293T cells)): no binding
Substance: TRIM21 (△268–465aa) (from UniProt P19474) (domain or fragment)

No constants are given. Whether binding was seen depends on the method and setting. In cells and extracts the contact can be indirect.
